Data on 3 sequences can be found in publication PMC3124419, “Elucidating the domain architecture and functions of non-core RAG1: The capacity of a non-core zinc-binding domain to function in nuclear import and nucleic acid binding” (BMC Biochemistry, 2011).

Common to all, as to experiment: EMSA
(In EMSA bound probe runs differently from free probe, usually more slowly.)

The target of data set [1] is T1, MBP-CND (RAG1 central non-core domain) (murine) (UniProt P15919).
T1 sequence (looked up): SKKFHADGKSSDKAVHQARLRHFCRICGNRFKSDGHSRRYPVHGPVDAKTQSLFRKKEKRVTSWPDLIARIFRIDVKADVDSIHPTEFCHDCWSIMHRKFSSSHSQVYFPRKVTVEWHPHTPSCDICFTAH
The conditions noted are these: 5 mM Mg2+, EMSA: 10 mM Tris pH 8.0, 5 mM MgCl2, 2 mM DTT, 6% glycerol, 100 mM NaCl, 25 C, 1 nM 32P-DNA, 3.5/8% discontinuous nondenaturing gel, recombinant protein, residues 87-217, protein details: N-terminal MBP.

In the next data set the target is T2, MBP-CND+bZDD (murine) (UniProt P15919).
T2 sequence (looked up): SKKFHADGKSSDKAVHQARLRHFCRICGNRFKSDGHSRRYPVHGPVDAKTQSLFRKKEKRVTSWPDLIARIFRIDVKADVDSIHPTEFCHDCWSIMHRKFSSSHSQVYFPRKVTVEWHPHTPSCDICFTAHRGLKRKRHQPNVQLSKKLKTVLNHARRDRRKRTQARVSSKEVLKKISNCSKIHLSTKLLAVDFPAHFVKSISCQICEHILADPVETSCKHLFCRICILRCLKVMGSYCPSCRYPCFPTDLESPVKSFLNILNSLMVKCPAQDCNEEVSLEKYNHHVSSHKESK
The conditions noted are these: 5 mM Mg2+, EMSA: 10 mM Tris pH 8.0, 5 mM MgCl2, 2 mM DTT, 6% glycerol, 100 mM NaCl, 25 C, 1 nM 32P-DNA, 3.5/8% discontinuous nondenaturing gel, recombinant protein, residues 87-380, protein details: N-terminal MBP.

Data set [2] addresses MBP-CND, DTPA-treated (apo) (murine) (UniProt P15919). The conditions noted are these: DTPA-treated protein; EMSA: 10 mM Tris pH 8.0, 5 mM MgCl2, 2 mM DTT, 6% glycerol, 100 mM NaCl, 25 C, 1 nM 32P-DNA; 3.5/8% discontinuous nondenaturing gel; recombinant protein; residues 87-217; protein details: N-terminal MBP; label: 5' 32P top strand.
The target in another data set is T3, MBP-RAG1(1-86) (murine) (UniProt P15919).
T3 sequence (looked up): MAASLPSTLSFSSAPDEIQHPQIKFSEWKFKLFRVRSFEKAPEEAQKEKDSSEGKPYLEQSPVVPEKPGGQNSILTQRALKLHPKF
The conditions noted are these: 5 mM Mg2+; EMSA: 10 mM Tris pH 8.0, 5 mM MgCl2, 2 mM DTT, 6% glycerol, 100 mM NaCl, 25 C, 1 nM 32P-DNA; 3.5/8% discontinuous nondenaturing gel; recombinant protein; residues 1-86; protein details: N-terminal MBP; label: 5' 32P top strand (unlabeled as competitor).

Setting [3] is: label: 5' 32P, single-stranded DNA.

For part of these data: A negative result means that nothing was seen under these conditions. For part of these data: At least one verdict was read from the data and is not stated in words by the source. For part of these data: Where a protein sequence is shown, tags need not be part of it. For part of these data: A weaker result is weaker than the reference pair of the same experiment. For part of these data: Construct, isoform or probe ends are uncertain for at least one entry.

In the case of “GATATGGCTCGTCTTA (double strand) [16 bp ds coding flank]”, the binding result is listed as “binds” in data set [1] (label: 5' 32P top strand), “binds” with MBP-CND+bZDD (murine) (label: 5' 32P top strand) and “binds more weakly” in data set [2].
As to “GATATGGCTCGTCTTA [16 nt ss coding flank (top strand)]”, the binding result (in data set [1] (setting [3]); in the data set with MBP-CND+bZDD (murine) (setting [3])) was “binds more weakly” each time.
For the sequence “GATATGGCTCGTCTTACACAGTGATATAGACCTTAACAAAAACCTCCAATCGAGCGGAG (double strand) [WT 12-RSS]”, the binding result with MBP-RAG1(1-86) (murine) is reported as “no binding”.
